The target of this assay is MeV-V_(CT221-299) (measles virus V protein, residues 221-299, containing the C-terminal domain) (measles virus (strain Ichinose-B95a)) (UniProt P0C774). Nature of the assay: SEC; last purification step of MeV-V_(CT221-299); mass from the standard curve 5.6 kDa (theoretical 9.2 kDa); both purified.

No constants are given. Whether binding was seen depends on the method and setting.

B1: MeV-V_(CT221-299) (measles virus V protein, residues 221-299, containing the C-terminal domain) (domain or fragment)
chain: GPASTSETPIKKGHRREIGLIWNGDRVFIDRWCNPMCSKVTLGTIRARCTCGECPRVCEQCRTDTGVDTRIWYHNLPEIPE
notes: additional Gly and Pro before Ala221, left after HRV-3C protease digestion; 15N- or 13C,15N-labelled for the NMR experiments, unlabelled for ITC; Monomer by SEC; also called MeV-VCT construct; MeV-VCTD; source: E. coli BL21 star (DE3), purified (Glutathione Sepharose 4B, 3C protease elution, HisTrap, HIC, SEC); not shown: GST, N-terminal, cleaved
Consider B1, for which the binding result was “no binding”.

(Values after PMC12548473, “Solution structure of the C-terminal domain of the measles virus V protein in its free form and mechanistic analysis of STAT2 targeting” (Journal of Virology, 2025).)
